Measurements reported in PubChem BioAssay AID1224826 (NIAID, 2016)
In all, the deposit lists about 17,000 reagents; shown is a random part of them. In the full data, about 1,110 (6.6%) are marked active. 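Active means lowered or raised reporter signal; replicate intensities are raw and not normalised per plate.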 Entries without a mark were called inactive.

Test: 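Knock-downs that raise or lower Tnf reporter signal after endotoxin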 (primary screen)
Cell system: RAW264.7 G9 macrophages from mouse bearing reporters for p65 (GFP) and the Tnf promoter (mCherry)
Knock-down reagent: siRNA pool against mouse genes, 100 nM
Time to read-out: 16 h of LPS stimulation, after 2 days of siRNA transfection
Conditions: bacterial lipopolysaccharide (Salmonella minnesota R595), 10 ng/ml
Measured: 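Nuclear mCherry signal of the Tnf promoter reporter measured by imaging after background removal, scaled to each plate median and turned into robust z-scores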
Direction: Tnf reporter robust z-score: higher = stronger Tnf promoter reporter signal after LPS; Tnf reporter intensity: higher = stronger Tnf promoter reporter signal
Active means: 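Called active when robust z-score is at most -1.3, matching the median of the Tlr4 knock-down control, or over 3; control wells and wells with under 50 cells never active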
Meaning of the calls: active = Tnf reporter clearly lowered or raised; inactive = no clear change in Tnf reporter

target gene,Tnf reporter robust z-score,fewer than 50 cells in well,"Tnf reporter intensity, replicate 1","Tnf reporter intensity, replicate 2"
Fpgs (folylpolyglutamyl synthetase),-0.63,enough cells in well,211,96.4
"Agl (amylo-1,6-glucosidase, 4-alpha-glucanotransferase)",0.19,enough cells in well,126,185
Or7g34 (olfactory receptor family 7 subfamily G member 34),1.73,enough cells in well,124,228
Ceacam1 (CEA cell adhesion molecule 1),0.57,enough cells in well,191,217
Reep6 (receptor accessory protein 6),0.85,enough cells in well,228,156
Isoc1 (isochorismatase domain containing 1),2.06,enough cells in well,414,57.5
Pld1 (phospholipase D1),-0.23,enough cells in well,250,157
Zc3h11a (zinc finger CCCH type containing 11A),-0.42,enough cells in well,120,127
Arid4b (AT-rich interaction domain 4B),-0.33,enough cells in well,138,163

Entries above whose target name starts with A or a (2):
target gene,Tnf reporter robust z-score,fewer than 50 cells in well,"Tnf reporter intensity, replicate 1","Tnf reporter intensity, replicate 2"
"Agl (amylo-1,6-glucosidase, 4-alpha-glucanotransferase)",0.19,enough cells in well,126,185
Arid4b (AT-rich interaction domain 4B),-0.33,enough cells in well,138,163

More reagents follow:
target gene,Tnf reporter robust z-score,fewer than 50 cells in well,"Tnf reporter intensity, replicate 1","Tnf reporter intensity, replicate 2"
Lyzl4 (lysozyme-like 4),-1.04,enough cells in well,142,33.4
Get1 (guided entry of tail-anchored proteins factor 1),-0.12,enough cells in well,145,90.1
Spata2l (spermatogenesis associated 2-like),0.33,enough cells in well,275,138
H4c8 (H4 clustered histone 8),0.1,enough cells in well,246,103
Or1e30 (olfactory receptor family 1 subfamily E member 30),0.58,enough cells in well,203,153
Prrg4 (proline rich Gla (G-carboxyglutamic acid) 4 (transmembrane)),0.28,enough cells in well,135,198
Slc6a4,-0.49,enough cells in well,195,112
"Fam220a (family with sequence similarity 220, member A)",0.71,enough cells in well,213,75.7
Apip (APAF1 interacting protein),5.27 (active),enough cells in well,390,427
"Plcg1 (phospholipase C, gamma 1)",1.06,enough cells in well,314,278
Vmn1r200 (vomeronasal 1 receptor 200),-0.62,enough cells in well,108,59.4
"H2-DMb1 (histocompatibility 2, class II, locus Mb1)",-0.52,enough cells in well,166,182
Vmn1r201 (vomeronasal 1 receptor 201),0.76,enough cells in well,130,128
Nudt5 (nudix hydrolase 5),0.16,enough cells in well,207,151
"Arap3 (ArfGAP with RhoGAP domain, ankyrin repeat and PH domain 3)",,fewer than 50 cells per well; well left out of calls,166,87.5
